## Results from one PubChem assay

Source: PubChem BioAssay AID1224904 (Broad Institute, 2016).

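Selective DUX4 reporter inhibition in doxycycline-induced 293T-iDUX4 cells, scored as Gaussia percent activity minus Italica percent activity, after a 24-hour treatment. The test concentration is not given here. Percent difference between the Gaussia and Italica channels; more negative values mean more selective suppression of the DUX4 reporter, and higher values mean less activity.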

Values are in %. The controls that fix the scale are not given here. Common to all entries: measured here: selective DUX4 reporter inhibition. Part of the compounds only, not a random draw; the main read-out is not listed here.

SMILES	Gaussia minus Italica difference (%)
CN(C)C(=O)C[C@@H]1CC[C@@H]2[C@H](COC[C@@H](O)CN2Cc2ccc(C(F)(F)F)cc2)O1	-17.6
C[C@@H]1CN([C@@H](C)CO)C(=O)c2c(c3ccccc3n2C)-c2ccccc2CO[C@H]1CN(C)Cc1cccc(F)c1	-23.1
COc1ccc(C#Cc2ccc([C@@H]3[C@@H](CO)N4C(=O)CN(C(=O)NC(C)C)C[C@@H]34)cc2)cc1	-1.706
O=C(Cc1cccnc1)N1CC(=O)N2[C@@H](CO)[C@H](c3ccc(C#CC4CCCCC4)cc3)[C@@H]2C1	-4.773
COc1ccc2c3c(n(C)c2c1)[C@H](CO)N(CC1CC1)CC31CCN(C(=O)c2ccc(F)cc2)CC1	-10.17
COc1ccc2c3c([nH]c2c1)[C@@H](CO)N(Cc1ccccc1OC)CC31CCN(C)CC1	-3.158
COc1ccc2c3c(n(C)c2c1)[C@@H](CO)N(Cc1nccs1)CC31CCN(CC2CCCC2)CC1	-9.412
CCCN1[C@H](C(=O)N[C@H](C)c2ccccc2)[C@@H](CO)[C@@H]2Cn3c(ccc(-c4ccc(F)cc4)c3=O)[C@@H]21	-7.13
C[C@H](C(=O)N(C)C[C@@H]1OCc2ccccc2-c2ccccc2C(=O)N([C@H](C)CO)C[C@@H]1C)c1ccccc1	11.74
Cc1cccc(-c2ccc(C3[C@@H]4CN(C(=O)C5CCCCC5)C[C@H]3N4)cc2)c1 (some centres undefined)	-19.71
O=C(Nc1ccccc1)N1CCCCN2[C@H](CO)[C@@H](c3ccc(C4=CCCCC4)cc3)[C@H]2C1	15.72
O=C(c1ccc(F)cc1)N1CC(=O)N2[C@@H](CO)[C@@H](c3ccc(C#CC4CCCCC4)cc3)[C@@H]2C1	-4.297
C[C@@H]1CN([C@H](C)CO)C(=O)c2ccccc2-c2ccccc2CO[C@H]1CN(C)C(=O)Nc1cccc(C(F)(F)F)c1	12.61
CO[C@H]1CC[C@H]2CCN(C)C(=O)C[C@H](c3ccccc3)CN(C)C(=O)c3cccc(C#N)c3OC[C@@H]1O2	12.94
COc1ccc(NC(=O)N2CC(=O)N3[C@@H](CO)[C@@H](c4ccc(C5=CCCC5)cc4)[C@@H]3C2)cc1	1.944
COc1ccc(S(=O)(=O)N(C)C[C@@H]2OCc3ccccc3-c3c(n(C)c4ccccc34)C(=O)N([C@H](C)CO)C[C@H]2C)cc1	-1.545
C[C@H](CO)N1C[C@H](C)[C@H](CN(C)S(=O)(=O)c2cccc(F)c2)OCc2ccccc2-c2c(n(C)c3ccccc23)C1=O	3.332
COc1ccc2c3c(n(C)c2c1)[C@H](CO)N(C(=O)Nc1ccc(F)cc1)CC31CN(Cc2ccccc2F)C1	1.17
N#C[C@@H]1[C@@H](c2ccccc2C2=CCCC2)[C@H](CO)N1C(=O)C1CCC1	-18.91
N#C[C@H]1[C@H](c2ccccc2-c2cccc(F)c2)[C@@H](CO)N1C(=O)C1CCCCC1	-2.285
CN1c2ccc(-c3cccc(F)c3)cc2[C@H]2[C@H](CCN2C(=O)c2cccc(F)c2)[C@H]1CO	-24.12
O=C(C1CCC1)N1C[C@@H]2N[C@H](C1)C2c1ccc(-c2cccc(F)c2)cc1 (some centres undefined)	-16.33
COc1ccc(S(=O)(=O)N2CCC3(CC2)CN(C(=O)CN(C)C)[C@H](CO)c2c3c3ccc(OC)cc3n2C)cc1	33.36
COCC(=O)N1CCC2(CC1)CN(Cc1ccccc1F)[C@H](CO)c1[nH]c3cc(OC)ccc3c12	-1.99
N#C[C@H]1[C@H](c2ccc(C#Cc3ccccc3F)cc2)[C@H](CO)N1C(=O)C1CCC1	-0.2116
COC(=O)C[C@H]1C[C@H]2c3cc(NC(=O)Nc4ccc(C(F)(F)F)cc4)ccc3O[C@H]2[C@@H](CO)O1	-7.732
O=C(C[C@H]1CC[C@H]2[C@@H](COC[C@H](O)CN2Cc2nccs2)O1)NCc1ccc(Oc2ccccc2)cc1	-12.29
COc1cccc(-c2ccc3c(c2)[C@H]2[C@H](CCN2S(=O)(=O)c2ccccc2C)[C@H](CO)N3C)c1	22.68
N#C[C@@H]1[C@H](c2ccccc2C2=CCCC2)[C@@H](CO)N1C(=O)Cc1ccncc1	-2.842
N#C[C@@H]1[C@H](c2ccccc2C2=CCCCC2)[C@@H](CO)N1C(=O)c1cccc(F)c1	-9.412
COc1ccc(C#Cc2ccc([C@H]3[C@@H](CO)N4C(=O)CN(C(C)=O)C[C@H]34)cc2)cc1	-6.463
COc1cccc(-c2ccc([C@@H]3[C@@H](CO)N4CCCCN(S(=O)(=O)c5cccs5)C[C@@H]34)cc2)c1	-10.3
COc1ccccc1-c1ccc2c(c1)[C@H]1[C@H](CCN1S(=O)(=O)c1ccccc1F)[C@H](CO)N2	12.42
C/C=C/c1ccccc1[C@H]1[C@@H](CO)N(C(=O)Nc2ccc(OC)cc2)[C@H]1C#N	4.828
C[C@H]1CN([C@@H](C)CO)C(=O)c2c(c3ccccc3n2C)-c2ccccc2CO[C@H]1CN(C)C(=O)Nc1cccc(Cl)c1Cl	6.083
O=C(C[C@H]1C[C@@H]2c3cc(NC(=O)c4ccc5c(c4)OCO5)ccc3O[C@@H]2[C@@H](CO)O1)NC1CCCCC1	-7.149

Some entries from above, unchanged:

SMILES,Gaussia minus Italica difference (%)
O=C(Nc1ccccc1)N1CCCCN2[C@H](CO)[C@@H](c3ccc(C4=CCCCC4)cc3)[C@H]2C1,15.72
C[C@H]1CN([C@@H](C)CO)C(=O)c2c(c3ccccc3n2C)-c2ccccc2CO[C@H]1CN(C)C(=O)Nc1cccc(Cl)c1Cl,6.083
C[C@H](CO)N1C[C@H](C)[C@H](CN(C)S(=O)(=O)c2cccc(F)c2)OCc2ccccc2-c2c(n(C)c3ccccc23)C1=O,3.332
CCCN1[C@H](C(=O)N[C@H](C)c2ccccc2)[C@@H](CO)[C@@H]2Cn3c(ccc(-c4ccc(F)cc4)c3=O)[C@@H]21,-7.13